Measured values published in the supplement of paper PMC10849652.
The list shows a part of the results.

By UniProt entry, the sequences of proteins in these tests, tags left out. Where a name states a change or a piece, a line headed by the entry shows the natural chain unless it says otherwise.
UniProt O43324: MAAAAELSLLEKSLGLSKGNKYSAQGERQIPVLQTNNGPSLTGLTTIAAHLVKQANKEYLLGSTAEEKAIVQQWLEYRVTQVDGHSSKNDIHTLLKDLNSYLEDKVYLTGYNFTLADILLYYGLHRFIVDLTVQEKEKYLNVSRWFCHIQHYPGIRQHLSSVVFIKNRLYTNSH
UniProt Q9BZG8: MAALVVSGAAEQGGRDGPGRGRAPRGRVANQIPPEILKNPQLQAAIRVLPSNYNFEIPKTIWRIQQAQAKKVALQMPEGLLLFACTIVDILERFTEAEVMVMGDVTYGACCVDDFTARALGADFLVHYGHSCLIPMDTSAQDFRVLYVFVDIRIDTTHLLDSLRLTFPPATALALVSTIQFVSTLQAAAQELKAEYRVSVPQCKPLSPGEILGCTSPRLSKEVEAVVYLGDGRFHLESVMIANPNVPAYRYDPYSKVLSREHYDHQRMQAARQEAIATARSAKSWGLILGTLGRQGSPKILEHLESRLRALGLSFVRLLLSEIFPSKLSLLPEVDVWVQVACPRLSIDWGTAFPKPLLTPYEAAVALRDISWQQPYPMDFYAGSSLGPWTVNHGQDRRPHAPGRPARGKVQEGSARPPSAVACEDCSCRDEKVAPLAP
UniProt O60762: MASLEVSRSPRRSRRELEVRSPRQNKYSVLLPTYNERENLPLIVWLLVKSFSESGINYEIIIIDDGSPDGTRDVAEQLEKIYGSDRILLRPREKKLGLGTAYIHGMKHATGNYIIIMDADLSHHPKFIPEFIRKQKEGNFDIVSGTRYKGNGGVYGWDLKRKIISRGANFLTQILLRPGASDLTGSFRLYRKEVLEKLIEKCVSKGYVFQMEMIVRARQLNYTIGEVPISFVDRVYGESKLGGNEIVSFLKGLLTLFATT
UniProt Q14919: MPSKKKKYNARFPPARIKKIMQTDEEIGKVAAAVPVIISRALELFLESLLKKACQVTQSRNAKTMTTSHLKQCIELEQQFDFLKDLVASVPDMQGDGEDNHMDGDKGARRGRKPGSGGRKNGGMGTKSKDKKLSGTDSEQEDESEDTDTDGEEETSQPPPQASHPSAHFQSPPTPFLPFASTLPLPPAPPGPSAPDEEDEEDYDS
UniProt O75071: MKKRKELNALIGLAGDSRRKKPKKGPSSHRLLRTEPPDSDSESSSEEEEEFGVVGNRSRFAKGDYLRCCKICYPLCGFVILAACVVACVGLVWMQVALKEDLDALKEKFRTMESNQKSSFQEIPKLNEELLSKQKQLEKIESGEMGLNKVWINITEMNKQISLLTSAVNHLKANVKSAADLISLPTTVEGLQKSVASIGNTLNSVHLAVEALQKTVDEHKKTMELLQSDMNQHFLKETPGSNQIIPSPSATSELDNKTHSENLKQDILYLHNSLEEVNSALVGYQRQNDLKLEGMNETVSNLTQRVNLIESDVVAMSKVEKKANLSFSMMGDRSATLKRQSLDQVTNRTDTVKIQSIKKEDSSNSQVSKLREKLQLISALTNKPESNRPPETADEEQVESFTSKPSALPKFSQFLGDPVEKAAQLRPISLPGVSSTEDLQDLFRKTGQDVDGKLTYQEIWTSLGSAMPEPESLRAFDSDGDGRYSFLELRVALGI
UniProt Q15075: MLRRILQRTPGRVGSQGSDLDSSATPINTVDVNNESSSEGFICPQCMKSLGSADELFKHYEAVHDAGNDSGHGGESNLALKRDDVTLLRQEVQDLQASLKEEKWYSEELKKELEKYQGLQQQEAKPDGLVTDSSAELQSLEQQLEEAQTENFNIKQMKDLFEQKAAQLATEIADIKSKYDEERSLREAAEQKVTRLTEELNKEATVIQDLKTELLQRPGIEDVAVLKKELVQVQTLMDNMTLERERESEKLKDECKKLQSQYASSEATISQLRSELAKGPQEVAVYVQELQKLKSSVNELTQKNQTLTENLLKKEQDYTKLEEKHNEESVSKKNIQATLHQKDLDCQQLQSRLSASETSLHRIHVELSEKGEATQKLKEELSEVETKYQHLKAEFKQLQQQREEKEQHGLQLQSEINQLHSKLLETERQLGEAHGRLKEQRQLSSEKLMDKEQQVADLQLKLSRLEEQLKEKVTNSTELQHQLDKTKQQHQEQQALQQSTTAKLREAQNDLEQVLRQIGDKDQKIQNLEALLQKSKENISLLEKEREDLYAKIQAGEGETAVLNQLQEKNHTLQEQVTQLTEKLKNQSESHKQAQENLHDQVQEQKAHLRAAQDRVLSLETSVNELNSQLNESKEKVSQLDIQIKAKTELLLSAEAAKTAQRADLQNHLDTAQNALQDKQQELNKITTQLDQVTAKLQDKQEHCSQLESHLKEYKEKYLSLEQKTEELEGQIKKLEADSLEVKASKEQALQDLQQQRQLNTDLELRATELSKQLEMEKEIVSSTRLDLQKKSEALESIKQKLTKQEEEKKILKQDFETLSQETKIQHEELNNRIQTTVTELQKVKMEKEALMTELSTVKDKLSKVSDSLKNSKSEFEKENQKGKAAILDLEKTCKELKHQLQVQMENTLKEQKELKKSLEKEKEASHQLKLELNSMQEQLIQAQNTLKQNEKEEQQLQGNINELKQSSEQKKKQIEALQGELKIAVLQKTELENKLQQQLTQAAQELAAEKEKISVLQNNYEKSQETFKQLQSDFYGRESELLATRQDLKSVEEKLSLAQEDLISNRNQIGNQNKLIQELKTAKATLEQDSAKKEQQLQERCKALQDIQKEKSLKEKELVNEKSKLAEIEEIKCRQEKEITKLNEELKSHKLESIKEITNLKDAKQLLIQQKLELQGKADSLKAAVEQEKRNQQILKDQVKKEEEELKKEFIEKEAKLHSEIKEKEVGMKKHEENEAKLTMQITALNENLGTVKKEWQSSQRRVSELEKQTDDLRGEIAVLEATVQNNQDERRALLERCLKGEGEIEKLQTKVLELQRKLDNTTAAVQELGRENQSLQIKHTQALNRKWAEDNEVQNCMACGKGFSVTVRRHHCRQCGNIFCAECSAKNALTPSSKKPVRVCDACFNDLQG
UniProt O43237, whole entry, looked up: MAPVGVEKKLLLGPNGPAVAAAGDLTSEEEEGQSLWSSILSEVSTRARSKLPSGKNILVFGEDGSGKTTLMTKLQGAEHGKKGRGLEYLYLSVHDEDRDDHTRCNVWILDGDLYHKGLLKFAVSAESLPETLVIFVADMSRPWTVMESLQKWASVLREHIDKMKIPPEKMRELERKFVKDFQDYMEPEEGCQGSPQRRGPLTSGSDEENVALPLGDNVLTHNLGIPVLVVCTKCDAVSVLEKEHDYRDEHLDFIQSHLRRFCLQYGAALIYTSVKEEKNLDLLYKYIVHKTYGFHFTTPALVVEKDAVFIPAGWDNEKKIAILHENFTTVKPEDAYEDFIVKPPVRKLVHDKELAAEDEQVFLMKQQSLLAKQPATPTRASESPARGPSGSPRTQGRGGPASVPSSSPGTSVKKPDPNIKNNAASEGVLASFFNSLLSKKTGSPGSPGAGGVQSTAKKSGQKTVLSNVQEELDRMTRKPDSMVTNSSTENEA
UniProt Q6P2E9: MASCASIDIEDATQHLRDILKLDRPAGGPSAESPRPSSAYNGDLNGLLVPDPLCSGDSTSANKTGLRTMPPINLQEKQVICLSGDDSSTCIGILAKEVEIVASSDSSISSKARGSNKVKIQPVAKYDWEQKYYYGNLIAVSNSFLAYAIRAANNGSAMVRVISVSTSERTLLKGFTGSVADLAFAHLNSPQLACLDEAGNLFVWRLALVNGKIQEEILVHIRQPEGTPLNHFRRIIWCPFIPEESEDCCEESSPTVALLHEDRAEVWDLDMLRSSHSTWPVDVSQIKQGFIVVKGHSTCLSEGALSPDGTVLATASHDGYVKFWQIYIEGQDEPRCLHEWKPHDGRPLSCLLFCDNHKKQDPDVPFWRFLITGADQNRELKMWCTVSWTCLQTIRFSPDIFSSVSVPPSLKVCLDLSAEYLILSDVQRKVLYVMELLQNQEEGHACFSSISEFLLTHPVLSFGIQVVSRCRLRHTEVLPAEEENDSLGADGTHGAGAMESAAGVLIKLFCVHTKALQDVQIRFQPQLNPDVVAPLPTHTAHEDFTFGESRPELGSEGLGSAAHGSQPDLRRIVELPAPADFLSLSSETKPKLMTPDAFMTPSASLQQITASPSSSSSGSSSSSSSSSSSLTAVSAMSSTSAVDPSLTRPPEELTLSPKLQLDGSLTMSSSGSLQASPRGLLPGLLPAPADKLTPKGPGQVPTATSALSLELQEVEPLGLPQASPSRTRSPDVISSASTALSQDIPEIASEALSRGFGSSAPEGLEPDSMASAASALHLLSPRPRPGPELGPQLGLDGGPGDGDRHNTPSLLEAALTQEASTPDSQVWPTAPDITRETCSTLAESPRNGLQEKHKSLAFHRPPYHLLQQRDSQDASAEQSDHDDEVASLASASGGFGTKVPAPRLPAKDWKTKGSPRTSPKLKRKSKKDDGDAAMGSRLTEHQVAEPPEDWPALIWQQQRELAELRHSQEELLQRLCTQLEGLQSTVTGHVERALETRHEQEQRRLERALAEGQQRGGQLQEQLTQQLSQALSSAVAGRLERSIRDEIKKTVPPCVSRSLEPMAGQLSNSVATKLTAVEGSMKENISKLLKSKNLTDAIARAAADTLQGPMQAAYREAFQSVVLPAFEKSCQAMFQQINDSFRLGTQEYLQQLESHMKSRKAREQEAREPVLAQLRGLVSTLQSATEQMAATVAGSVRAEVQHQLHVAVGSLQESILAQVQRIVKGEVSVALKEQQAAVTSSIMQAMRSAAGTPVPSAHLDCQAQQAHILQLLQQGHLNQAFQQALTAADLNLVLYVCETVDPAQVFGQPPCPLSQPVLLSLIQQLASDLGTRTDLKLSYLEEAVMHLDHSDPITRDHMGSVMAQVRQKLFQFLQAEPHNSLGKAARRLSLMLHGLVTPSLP
UniProt Q8WWZ3: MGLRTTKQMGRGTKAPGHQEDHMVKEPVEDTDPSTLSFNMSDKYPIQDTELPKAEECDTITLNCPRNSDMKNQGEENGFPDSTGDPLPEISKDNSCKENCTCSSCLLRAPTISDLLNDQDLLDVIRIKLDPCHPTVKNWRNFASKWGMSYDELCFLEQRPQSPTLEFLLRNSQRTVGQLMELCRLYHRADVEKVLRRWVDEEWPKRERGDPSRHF
UniProt Q7L8W6: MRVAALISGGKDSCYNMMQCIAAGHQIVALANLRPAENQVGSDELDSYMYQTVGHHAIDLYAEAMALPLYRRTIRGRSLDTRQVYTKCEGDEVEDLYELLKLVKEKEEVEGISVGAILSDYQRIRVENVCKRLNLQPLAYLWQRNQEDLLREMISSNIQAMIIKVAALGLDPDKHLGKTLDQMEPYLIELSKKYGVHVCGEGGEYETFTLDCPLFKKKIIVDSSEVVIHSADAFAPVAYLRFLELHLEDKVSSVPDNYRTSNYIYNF
UniProt Q96F86: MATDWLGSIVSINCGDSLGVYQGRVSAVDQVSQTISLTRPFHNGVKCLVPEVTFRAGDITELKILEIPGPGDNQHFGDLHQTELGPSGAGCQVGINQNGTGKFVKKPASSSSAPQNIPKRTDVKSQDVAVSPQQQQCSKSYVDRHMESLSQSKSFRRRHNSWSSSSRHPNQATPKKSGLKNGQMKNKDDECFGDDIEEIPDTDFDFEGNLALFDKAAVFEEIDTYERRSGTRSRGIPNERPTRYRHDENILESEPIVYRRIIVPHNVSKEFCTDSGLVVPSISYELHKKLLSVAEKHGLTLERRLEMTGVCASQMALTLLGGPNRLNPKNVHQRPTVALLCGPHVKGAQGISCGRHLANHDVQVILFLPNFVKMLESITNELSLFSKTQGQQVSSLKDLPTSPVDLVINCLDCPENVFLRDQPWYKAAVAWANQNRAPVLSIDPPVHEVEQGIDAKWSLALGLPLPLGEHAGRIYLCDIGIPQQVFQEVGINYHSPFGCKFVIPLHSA
UniProt Q05639, whole entry, looked up: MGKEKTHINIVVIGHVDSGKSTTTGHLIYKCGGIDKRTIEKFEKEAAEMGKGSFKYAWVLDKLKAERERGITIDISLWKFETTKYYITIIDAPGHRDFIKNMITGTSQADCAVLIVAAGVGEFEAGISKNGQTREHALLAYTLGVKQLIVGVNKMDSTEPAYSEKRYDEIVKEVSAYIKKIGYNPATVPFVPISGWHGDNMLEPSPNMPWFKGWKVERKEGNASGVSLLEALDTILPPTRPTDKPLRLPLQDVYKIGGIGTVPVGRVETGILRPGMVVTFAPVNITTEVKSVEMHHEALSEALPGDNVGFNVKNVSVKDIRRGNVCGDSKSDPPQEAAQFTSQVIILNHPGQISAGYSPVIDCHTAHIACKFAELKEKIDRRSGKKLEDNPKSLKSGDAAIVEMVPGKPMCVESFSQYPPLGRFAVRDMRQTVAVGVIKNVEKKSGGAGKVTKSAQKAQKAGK

How the values were obtained:
Assay in all cases: log2 fold change, soluble protein after heating vs DMSO (PISA); higher = thermal stabilisation; K562 lysate, 10 uM; active = over 0.2 and 3.5 SD of the protein, either way, in both replicates (recomputed)
[1] = compound: CCCS(=O)(=O)Nc1ccc(F)c(C(=O)c2c[nH]c3ncc(-c4ccc(Cl)cc4)cc23)c1F [vemurafenib]
How it was run: (§1)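 Thermal stability, expressed as log-two fold change relative to solvent controls, is given from duplicates. Crude K562 extract in PBS pH 7.4 with 1 mM MgCl2, at 1 mg/mL protein, was treated with 10 μM compound for 30 min and heated in aliquots for 3 min across 48°C-58°C. After pooling, adjustment to 0.5% NP-40 at 4°C and centrifugation at 21,000xg for 90 min, supernatant protein was measured by TMTpro 16plex LC-MS/MS with channel sums equalised.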

[2] = compound: CCCS(=O)(=O)Nc1ccc(F)c(C(=O)c2c[nH]c3ncc(Cl)cc23)c1F
How it was run: as §1

[3] = compound: CCN(CCCOc1ccc2c(Nc3cc(CC(=O)Nc4cccc(F)c4)[nH]n3)ncnc2c1)CCOP(=O)(O)O [barasertib]
How it was run: as §1

[4] = compound: CC[C@@H]1C(=O)N(C)c2cnc(Nc3ccc(C(=O)NC4CCN(C)CC4)cc3OC)nc2N1C1CCCC1
How it was run: as §1

[5] = compound: CC[C@@H]1C(=O)N(C)c2cnc(Nc3ccc(C(=O)N[C@H]4CC[C@H](N5CCN(CC6CC6)CC5)CC4)cc3OC)nc2N1C(C)C [volasertib]
How it was run: as §1

[6] = compound: CCn1c(C(=O)N(C2CC2)C2CC2)cc2c3c(ncn3C)c(Nc3cc(C)n(C)n3)nc21
How it was run: as §1

[7] = compound: CCn1cc(-c2ccnc3[nH]c(-c4cccc(CN(C)C)c4)cc23)c(-c2ccc(NC(=O)N(C)C)cc2)n1
How it was run: as §1

[8] = compound: CN1CCC(CNc2ccc3ncc(-c4cccc(OC(F)(F)F)c4)n3n2)CC1
How it was run: as §1

[9] = compound: CN1CCN(CCOc2cc(OC3CCOCC3)c3c(Nc4c(Cl)ccc5c4OCO5)ncnc3c2)CC1 [saracatinib]
How it was run: as §1

[10] = compound: CN1CCN(c2nc(C3=C(c4c[nH]c5ccccc45)C(=O)NC3=O)c3ccccc3n2)CC1 [sotrastaurin]
How it was run: as §1

[11] = compound: CN1CC[C@H](c2c(O)cc(O)c3c(=O)cc(-c4ccccc4Cl)oc23)[C@H](O)C1 [alvocidib]
How it was run: as §1

[12] = compound: CN1CCc2c(c3ccccc3n2Cc2ccc(C(=O)NO)cc2)C1 [Tubastatin A]
How it was run: as §1

[13] = compound: CNC(=O)C1=CC=CC=C1NC2=NC(=NC=C2Cl)NC3=C(C=C(C=C3)N4CCOCC4)OC
How it was run: as §1

[14] = compound: CNC(=O)c1ccc(Nc2ncc(C(F)(F)F)c(NCc3nccnc3N(C)S(C)(=O)=O)n2)cc1 [defactinib]
How it was run: as §1

[15] = compound: CNc1nc(-c2ccc3c(N)n[nH]c3c2)cc(N2C[C@@H](C(=O)NC3CCCCC3)CC[C@H]2C)n1
How it was run: as §1

[16] = compound: COC(=O)N[C@@H](C)CNc1nccc(-c2cn(C(C)C)nc2-c2cc(Cl)cc(NS(C)(=O)=O)c2F)n1 [encorafenib]
How it was run: as §1

[17] = compound: COC(=O)[C@H](CCSC)NC(=O)C1=C(C=C(C=C1)NC[C@H](CS)N)C2=CC=CC=C2
How it was run: as §1

[18] = compound: COc1cc(Nc2ncc3c(n2)-c2ccc(Cl)cc2C(c2c(F)cccc2OC)=NC3)ccc1C(=O)O [alisertib]
How it was run: as §1

[19] = compound: COc1cc2nc(-c3cc(F)ccc3O)nc(N[C@@H]3CNC[C@H]3C(C)(C)O)c2cc1OC
How it was run: as §1

[20] = compound: COc1cc2ncnc(Nc3ccc(F)c(Cl)c3)c2cc1OCCCN1CCOCC1 [gefitinib]
How it was run: as §1

Measured: log2 fold change

EEF1E1 (UniProt O43324)
inactive: [1] 0.023 | [2] 0 | [3] 0.104 | [4] -0.043 | [5] -0.073 | [6] 0.002 | [7] -0.05 | [8] -0.01 | [9] -0.004 | [10] 0.03 | [11] 0.026 | [12] -0.088 | [13] -0.037 | [14] -0.018 | [15] -0.054 | [16] -0.017 | [17] 0.076 | [18] 0.023 | [19] 0.014 | [20] -0.002

DPH1 (UniProt Q9BZG8)
inactive: [1] -0.036 | [2] -0.018 | [3] -0.003 | [4] 0.028 | [5] -0.031 | [6] 0.001 | [7] 0.022 | [8] 0.04 | [9] 0.007 | [10] -0.015 | [11] -0.045 | [12] 0.02 | [13] 0.009 | [14] 0 | [15] -0.003 | [16] -0.002 | [17] 0.04 | [18] 0.001 | [19] 0.001 | [20] 0.062

DPYSL2 (UniProt Q16555)
inactive: [1] -0.066 | [2] 0.042 | [3] -0.025 | [4] 0.06 | [5] 0.003 | [6] -0.011 | [7] -0.05 | [8] 0.019 | [9] 0.082 | [10] -0.018 | [11] 0.041 | [12] -0.009 | [13] -0.003 | [14] 0.006 | [15] 0.029 | [16] -0.051 | [17] 0.021 | [18] -0.073 | [19] 0.028 | [20] 0.039

DPM1 (UniProt O60762)
inactive: [1] 0.055 | [2] 0.004 | [3] -0.021 | [4] 0.039 | [5] 0.001 | [6] -0.012 | [7] -0.013 | [8] -0.058 | [9] 0.036 | [10] 0.028 | [11] 0.084 | [12] 0.055 | [13] -0.005 | [14] 0.037 | [15] 0.041 | [16] 0.01 | [17] 0.083 | [18] 0.047 | [19] 0.013 | [20] -0.041

DRAP1 isoform 2 (UniProt Q14919)
inactive: [1] 0.008 | [2] 0.013 | [3] -0.037 | [4] 0.071 | [5] 0.029 | [6] -0.027 | [7] 0.026 | [8] -0.021 | [9] -0.032 | [10] -0.018 | [11] 0.008 | [12] -0.009 | [13] 0.086 | [14] 0.028 | [15] 0 | [16] 0.032 | [17] -0.027 | [18] -0.003 | [19] -0.004 | [20] 0.02

EHD2 (UniProt Q9NZN4)
inactive: [1] 0.046 | [2] 0 | [3] 0.022 | [4] 0.007 | [5] -0.111 | [6] 0.005 | [7] 0.016 | [8] -0.066 | [9] 0.075 | [10] 0.017 | [11] -0.012 | [12] -0.051 | [13] 0.055 | [14] 0.032 | [15] -0.037 | [16] 0.001 | [17] 0.246 | [18] -0.015 | [19] 0.071 | [20] -0.04

EFCAB14 (UniProt O75071)
inactive: [1] 0.022 | [2] 0.001 | [3] -0.01 | [4] 0.039 | [5] 0.008 | [6] -0.042 | [7] -0.058 | [8] 0.047 | [9] 0.023 | [10] 0.005 | [11] -0.056 | [12] 0.077 | [13] 0.01 | [14] -0.007 | [15] -0.058 | [16] 0.038 | [17] -0.086 | [18] 0.063 | [19] 0.012 | [20] -0.131

2 successive records already listed:
DPH1 (UniProt Q9BZG8)
inactive: [1] -0.036 | [2] -0.018 | [3] -0.003 | [4] 0.028 | [5] -0.031 | [6] 0.001 | [7] 0.022 | [8] 0.04 | [9] 0.007 | [10] -0.015 | [11] -0.045 | [12] 0.02 | [13] 0.009 | [14] 0 | [15] -0.003 | [16] -0.002 | [17] 0.04 | [18] 0.001 | [19] 0.001 | [20] 0.062

DPYSL2 (UniProt Q16555)
inactive: [1] -0.066 | [2] 0.042 | [3] -0.025 | [4] 0.06 | [5] 0.003 | [6] -0.011 | [7] -0.05 | [8] 0.019 | [9] 0.082 | [10] -0.018 | [11] 0.041 | [12] -0.009 | [13] -0.003 | [14] 0.006 | [15] 0.029 | [16] -0.051 | [17] 0.021 | [18] -0.073 | [19] 0.028 | [20] 0.039

(continued)

EEA1 (UniProt Q15075)
inactive: [1] -0.014 | [2] -0.005 | [3] -0.014 | [4] 0.016 | [5] 0.022 | [6] -0.012 | [7] 0.066 | [8] -0.006 | [9] -0.002 | [10] 0.008 | [11] 0.001 | [12] 0.043 | [13] -0.024 | [14] -0.009 | [15] 0.002 | [16] -0.007 | [17] -0.048 | [18] -0.018 | [19] 0.008 | [20] -0.01

DYNC1LI2 (UniProt O43237)
inactive: [1] -0.007 | [2] -0.012 | [3] 0.004 | [4] 0.048 | [5] -0.008 | [6] -0.067 | [7] -0.036 | [8] -0.032 | [9] 0.001 | [10] -0.031 | [11] 0.014 | [12] 0.097 | [13] 0.018 | [14] -0.042 | [15] 0.037 | [16] 0.016 | [17] 0.018 | [18] -0.04 | [19] 0.048 | [20] 0.085

EDC4 (UniProt Q6P2E9)
inactive: [1] 0.053 | [2] 0.004 | [3] 0.026 | [4] -0.013 | [5] -0.015 | [6] 0.015 | [7] -0.055 | [8] 0.001 | [9] 0.011 | [10] 0.011 | [11] -0.012 | [12] -0.14 | [13] 0.015 | [14] -0.008 | [15] -0.034 | [16] 0.009 | [17] -0.116 | [18] 0.021 | [19] 0.021 | [20] -0.017

EDARADD (UniProt Q8WWZ3)
inactive: [1] -0.066 | [2] 0.02 | [4] -0.023 | [5] -0.006 | [6] -0.011 | [7] -0.14 | [8] 0.057 | [9] 0.04 | [10] -0.074 | [11] -0.015 | [12] -0.003 | [13] 0.019 | [14] 0.009 | [15] -0.068 | [16] 0.013 | [17] -0.072 | [18] -0.075 | [19] 0.027 | [20] 0.043
active: [3] 0.255

DPH6 (UniProt Q7L8W6)
inactive: [1] 0.047 | [2] 0.025 | [3] 0 | [4] 0.017 | [5] -0.055 | [6] 0.023 | [7] -0.002 | [8] 0.057 | [9] -0.006 | [10] 0.01 | [11] -0.015 | [12] -0.09 | [13] -0.023 | [14] -0.011 | [15] -0.112 | [16] 0.036 | [17] -0.097 | [18] 0.022 | [19] 0.02 | [20] 0.052

DVL2 (UniProt O14641)
inactive: [1] 0.067 | [2] -0.172 | [3] 0.119 | [4] -0.033 | [5] 0 | [6] 0.007 | [7] 0.011 | [8] -0.003 | [9] 0.018 | [10] -0.055 | [11] 0.002 | [12] -0.079 | [13] -0.039 | [14] 0.028 | [15] -0.027 | [16] -0.018 | [17] -0.036 | [18] 0.003 | [19] -0.069 | [20] 0.006

EDC3 (UniProt Q96F86)
inactive: [1] -0.011 | [2] 0.019 | [3] -0.01 | [4] 0.066 | [5] -0.016 | [6] -0.012 | [7] -0.017 | [8] -0.043 | [9] 0.006 | [10] 0.018 | [11] -0.045 | [12] -0.1 | [13] 0.003 | [14] 0.009 | [15] 0.038 | [16] 0.019 | [17] -0.071 | [18] 0.025 | [19] -0.02 | [20] -0.042

EEF1A2 (UniProt Q05639)
inactive: [1] 0.005 | [2] 0.012 | [3] -0.024 | [4] -0.014 | [5] -0.024 | [6] -0.001 | [7] -0.048 | [8] -0.012 | [9] 0.046 | [10] -0.022 | [11] 0.02 | [12] -0.029 | [13] -0.005 | [14] -0.018 | [15] 0.044 | [16] -0.031 | [17] 0.136 | [18] 0.064 | [19] 0.007 | [20] 0.007
